Results: US11260050B2, “Combination of cotinine plus antioxidant for treatment-resistant depression and correction of astrocytes functional deficit induced by depression and other neuropathological” (UNIVERSIDAD SAN SEBASTIAN, priority 2017, dated 2022)

Tested on: conditioned mice
Test: Fear retention and extinction tests after fear conditioning (Example 4)
Type: in vivo, Mice C57BL/6
Settings: sertraline or krill oil alone
Description: Three-month-old mice (n=5-6/condition) were weighed and assigned to treatment groups. Mice were treated with vehicle or drugs, starting two h after fear conditioning and daily after behavioral testing until euthanasia. Mice received daily treatments with 1. PBS (phosphate buffer saline, pH 7.4) via intranasal; 2. Cotinine (10 mg/ml) dissolved in PBS via intranasal (IN Cot, 24 μl); 3. Krill oil dissolved in PBS, via intranasal (48 mg/ml, 24 μl); 4. Cotinine (10 mg/ml) plus krill oil dissolved in PBS, via intranasal (48 mg/ml, 24 μl); 5.
For intranasal delivery, mice were hand-restrained, placed in a supine position, and given two 12 μl drops of cotinine solutions, or PBS, into both nares consecutively. Mice were given an extra 12 μl treatment drop if the subject forcibly ejected or sneezed out the solution. Mice were held supine for 5-10 seconds after delivery to ensure that all fluid was inhaled.
Contextual fear conditioning was performed as described. […] Freezing behavior was defined as the absence of all movement except the one needed for breathing was assessed using the FreezeView Software (MED Associates Inc.).
Fear retention and extinction experiments were performed as described, using the same cohorts of mice and reproduced in two separate experiments. […] Freezing behavior was measured using the ANY-Maze® software (Stoelting CO, USA). […]

CN[C@H]1CC[C@@H](c2ccc(Cl)c(Cl)c2)c2ccccc21.Cl [Sertraline, (1S,4S)-4-(3,4-dichlorophenyl)-1,2,3,4-tetrahydro-N-methyl-1-naphthalenamine hydrochloride, reference compound]
day on which decrease in freezing became comparable to control PBS-treated mice: 5 days
